# Test results reported in PubChem BioAssay AID2685 (National Center for Advancing Translational Sciences (NCATS), 2010).
# The list shows a part of the results. These are further read-outs of the screen, such as a control signal, another cell line or another target. No call is given for them. Most of these compounds were active or inconclusive in the main read-out, so they are no random draw. Words in brackets tell the shape of the fitted curve; partial curves, single points and poor fits give uncertain potencies.
# Test: qHTS Assay for Lipid Storage Modulators in Drosophila S3 Cells;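 as to cell number change: cells counted by Cell Tracker Red CMTPX staining in the red channel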
# Settings: BODIPY lipid droplet fluorescence, 18-24 h; for cell number change: measured here: cell count max response, cells fed with added oleic acid
# Outline: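 Drosophila S3 cells got compounds at several concentrations plus oleic acid (400 uM solution). Laser-scanning cytometry with 488 nm excitation read lipid droplets at 500-530 nm and cells at 575-640 nm. Percent activity was relative to 20 uM Triacsin C.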
# [1] = measured here: lipid fluorescence (Fed channel) AC50, cells fed with added oleic acid
# [2] = measured here: cell number channel AC50, cells fed with added oleic acid
SMILES,AC50 [1],cell number change,AC50 [2]
Cc1ccc(Cl)cc1NC(C#N)c1ccccc1 (stereo not drawn),"0.517 µM [rising, full curve, poor fit]",,
CC(C)C(=O)NC(=O)[C@@H]1CCCN1C(=O)/C=C/c1ccccc1,"16.4 µM [rising, single point]",14.9%,
COc1cccc(NC(=O)n2nc(N)cc2-c2ccc(Cl)cc2)c1,,4.41%,
Cc1ccc(Cn2c(C)c3cnn(CC(=O)NCc4ccccn4)c(=O)c3c2C)cc1,"29.1 µM [rising, single point]",9.22%,
Cc1nc2oc3ccccc3c(=O)c2c(=O)n1Cc1ccccc1,"29.1 µM [falling, single point]",,
CCCCNC(=O)C1(NC(=O)Nc2ccc(C)cc2)CCCCC1,"0.58 µM [falling, single point]",,"0.731 µM [falling, single point]"
OCC(CBr)(CBr)CBr,"5.17 µM [falling, single point]",-19.1%,
Cn1c(SCC(=O)N2CCOCC2)nnc1-c1ccc(NC(=O)c2ccccc2F)cc1,"14.6 µM [rising, single point]",16.6%,
Cc1[nH]c2ccccc2c1C(=O)CN1C(=O)C(=O)N(CCC2=CCCCC2)C1=O,"6.51 µM [rising, partial curve, poor fit]",-8.72%,
Nc1ncc(Br)cc1S(=O)(=O)NCCc1ccccc1,"6.51 µM [rising, partial curve, poor fit]",-3.63%,
O=C(C1CC1)N1CCc2cc(Br)cc(S(=O)(=O)N3CCN(c4ccccn4)CC3)c21,,,"0.116 µM [falling, full curve, poor fit]"
COCCNC(=O)C(c1ccc(C)o1)N(Cc1ccccc1)C(=O)Cn1nnc2ccccc21 (stereo not drawn),,3.37%,"0.82 µM [rising, single point]"
COc1ccccc1NC(=O)Cn1nnc(C(=O)Nc2ccccc2)c1N,,,"4.11 µM [rising, partial curve]"
CC1CCCN(Cc2nc3c(c(=O)n(C)c(=O)n3C)n2CCc2ccccc2)C1 (stereo not drawn),,92.5%,"23.1 µM [rising, single point]"
Nc1ccc(C(=O)OCc2nc3ccccc3s2)cc1,"0.651 µM [rising, partial curve, poor fit]",23.1%,"0.206 µM [rising, single point]"
COc1cc(NC(=O)CCc2ccccc2)nc(OC)n1,"6.51 µM [rising, full curve]",-9.45%,
COc1ccc(N(CC(=O)NCc2ccco2)S(C)(=O)=O)cc1OC,"2.06 µM [falling, partial curve, poor fit]",-28.1%,"1.3 µM [falling, full curve, poor fit]"
Cc1ccc(/C(O)=C2\C(=O)C(=O)N(C)C2c2ccccc2[N+](=O)[O-])cc1 (stereo not drawn),"7.31 µM [falling, partial curve]",-4.74%,

# In another format: 11 of the compounds above
SMILES	AC50 [1]	cell number change	AC50 [2]
Cc1nc2oc3ccccc3c(=O)c2c(=O)n1Cc1ccccc1	29.1 µM [falling, single point]		
CCCCNC(=O)C1(NC(=O)Nc2ccc(C)cc2)CCCCC1	0.58 µM [falling, single point]		0.731 µM [falling, single point]
OCC(CBr)(CBr)CBr	5.17 µM [falling, single point]	-19.1%	
Cn1c(SCC(=O)N2CCOCC2)nnc1-c1ccc(NC(=O)c2ccccc2F)cc1	14.6 µM [rising, single point]	16.6%	
Cc1[nH]c2ccccc2c1C(=O)CN1C(=O)C(=O)N(CCC2=CCCCC2)C1=O	6.51 µM [rising, partial curve, poor fit]	-8.72%	
Nc1ncc(Br)cc1S(=O)(=O)NCCc1ccccc1	6.51 µM [rising, partial curve, poor fit]	-3.63%	
O=C(C1CC1)N1CCc2cc(Br)cc(S(=O)(=O)N3CCN(c4ccccn4)CC3)c21			0.116 µM [falling, full curve, poor fit]
COCCNC(=O)C(c1ccc(C)o1)N(Cc1ccccc1)C(=O)Cn1nnc2ccccc21 (stereo not drawn)		3.37%	0.82 µM [rising, single point]
COc1ccccc1NC(=O)Cn1nnc(C(=O)Nc2ccccc2)c1N			4.11 µM [rising, partial curve]
CC1CCCN(Cc2nc3c(c(=O)n(C)c(=O)n3C)n2CCc2ccccc2)C1 (stereo not drawn)		92.5%	23.1 µM [rising, single point]
Nc1ccc(C(=O)OCc2nc3ccccc3s2)cc1	0.651 µM [rising, partial curve, poor fit]	23.1%	0.206 µM [rising, single point]

# Next part

SMILES,AC50 [1],cell number change,AC50 [2]
C[C@@H](C[C@@H](O)[C@H](O)C(C)(C)O)[C@@H]1CC[C@]2(C)C3=CC[C@H]4C(C)(C)C(=O)CC[C@]4(C)[C@H]3CC[C@@]12C,"9.2 µM [falling, partial curve]",-43%,"29.1 µM [falling, single point]"
CC(=O)NN1C(=O)/C(=C2/Sc3ccccc3N2C)SC1=S,"7.31 µM [rising, partial curve, poor fit]",19.1%,
Cc1ccc(C2(c3ccc(C)cc3)CC2C(=O)Nc2ccc([N+](=O)[O-])cc2O)cc1 (stereo not drawn),"7.31 µM [falling, partial curve]",-39.2%,"20.6 µM [falling, partial curve, poor fit]"
Cc1cc(C)c(C(N)=O)c(Nc2ccc(F)cc2)n1,"29.1 µM [rising, single point]",8.8%,
Cc1ccccc1OCC(=O)Nc1cccc(N(C)S(C)(=O)=O)c1,"0.326 µM [rising, full curve]",14.5%,"0.259 µM [rising, partial curve, poor fit]"
CCOC(=O)c1[nH]c2ccccc2c1NC(=O)CC(C)(C)C,"2.31 µM [falling, partial curve]",-21.8%,
O=C(NC1CCCc2c1cnn2-c1ccc(F)cc1F)c1ccccc1N1CCOCC1 (stereo not drawn),"29.1 µM [falling, single point]",-26.7%,
COc1ccccc1-c1c(C(F)(F)F)oc2cc(OC(=O)c3cccc([N+](=O)[O-])c3C)ccc2c1=O,"25.9 µM [falling, single point]",-20%,
CCOc1ccc2nc(NC(=S)NCc3ccccc3)sc2c1,"0.731 µM [rising, single point]",-7.44%,
Cn1cc(CCC(=O)NC2CC2)c2ccccc21,,37.6%,"32.6 µM [rising, single point]"
CC(SCc1cc(=O)n2c([nH]c3ccccc32)c1C#N)C(=O)O (stereo not drawn),"0.058 µM [rising, full curve, poor fit]",8.1%,
O=C(CN(C(=O)CSc1nc2ccccc2o1)c1ccccc1)NC1CCCCC1,,23%,"4.61 µM [rising, partial curve, poor fit]"
Cc1ccc(/C(=N/Nc2ncnc3ccccc23)C(=O)O)cc1,,33.8%,"29.1 µM [rising, single point]"
CCOc1ccc(NC(=O)CCC(=O)O)cc1,"0.651 µM [falling, full curve, poor fit]",7.73%,
CCO[C@H]1OC(C(=O)NCc2ccccc2)=C[C@@H](c2ccc(C(F)(F)F)cc2)[C@@H]1CCCO,,-0.949%,
NC(=O)N/N=C/c1ccc(-c2cccc(C(F)(F)F)c2)o1,"29.1 µM [rising, single point]",36.8%,"23.1 µM [rising, single point]"
COC(=O)CCCN=C1SCCN1Cc1ccccc1,"35.5 µM [rising, single point]",5.26%,"4.11 µM [rising, partial curve, poor fit]"
COc1cc2c(cc1OC)CN(C(=O)/C=C/c1cccc([N+](=O)[O-])c1)CC2,"0.206 µM [rising, single point]",2.94%,
